Experimental data from the supplement of paper PMC6411743.
± gives the standard deviation of the averaged measurements. The entries are a selection whose mix differs from that of the whole data set.

Sequences of proteins named here, by UniProt entry; tags and fusion partners are left off. A change or cut given only in a name is not applied to a line headed by its entry.
UniProt P35219: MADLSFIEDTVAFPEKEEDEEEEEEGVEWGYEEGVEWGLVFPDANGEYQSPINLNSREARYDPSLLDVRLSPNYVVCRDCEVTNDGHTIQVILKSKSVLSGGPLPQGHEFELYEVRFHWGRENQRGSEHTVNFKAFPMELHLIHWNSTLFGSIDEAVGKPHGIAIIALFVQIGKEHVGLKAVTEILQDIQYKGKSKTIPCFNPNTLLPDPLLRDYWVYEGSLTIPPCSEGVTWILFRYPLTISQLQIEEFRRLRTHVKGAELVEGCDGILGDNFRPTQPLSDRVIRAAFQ
UniProt P17096: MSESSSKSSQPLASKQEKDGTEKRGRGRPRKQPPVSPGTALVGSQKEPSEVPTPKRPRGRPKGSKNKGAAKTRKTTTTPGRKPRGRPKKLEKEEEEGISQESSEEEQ
UniProt P19634, whole entry: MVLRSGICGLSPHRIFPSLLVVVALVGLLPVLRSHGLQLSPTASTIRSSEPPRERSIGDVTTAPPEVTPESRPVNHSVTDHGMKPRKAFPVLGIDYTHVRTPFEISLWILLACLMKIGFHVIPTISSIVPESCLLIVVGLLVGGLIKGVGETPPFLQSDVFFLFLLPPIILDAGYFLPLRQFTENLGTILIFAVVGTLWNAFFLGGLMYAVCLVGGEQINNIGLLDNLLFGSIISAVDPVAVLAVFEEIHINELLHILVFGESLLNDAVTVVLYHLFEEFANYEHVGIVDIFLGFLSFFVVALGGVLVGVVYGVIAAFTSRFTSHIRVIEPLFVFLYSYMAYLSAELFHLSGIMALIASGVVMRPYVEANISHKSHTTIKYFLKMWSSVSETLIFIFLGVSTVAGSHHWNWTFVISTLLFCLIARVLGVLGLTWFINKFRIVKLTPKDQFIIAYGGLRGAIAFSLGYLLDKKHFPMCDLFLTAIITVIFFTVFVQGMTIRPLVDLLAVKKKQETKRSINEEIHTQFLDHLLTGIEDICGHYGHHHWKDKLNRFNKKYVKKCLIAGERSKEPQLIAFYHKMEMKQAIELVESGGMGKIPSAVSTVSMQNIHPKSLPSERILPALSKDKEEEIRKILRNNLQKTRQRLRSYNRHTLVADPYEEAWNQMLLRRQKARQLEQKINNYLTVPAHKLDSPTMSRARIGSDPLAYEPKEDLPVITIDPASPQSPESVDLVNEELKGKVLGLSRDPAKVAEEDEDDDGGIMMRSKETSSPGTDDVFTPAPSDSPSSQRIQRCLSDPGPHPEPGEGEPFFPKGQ
UniProt P28907, whole entry: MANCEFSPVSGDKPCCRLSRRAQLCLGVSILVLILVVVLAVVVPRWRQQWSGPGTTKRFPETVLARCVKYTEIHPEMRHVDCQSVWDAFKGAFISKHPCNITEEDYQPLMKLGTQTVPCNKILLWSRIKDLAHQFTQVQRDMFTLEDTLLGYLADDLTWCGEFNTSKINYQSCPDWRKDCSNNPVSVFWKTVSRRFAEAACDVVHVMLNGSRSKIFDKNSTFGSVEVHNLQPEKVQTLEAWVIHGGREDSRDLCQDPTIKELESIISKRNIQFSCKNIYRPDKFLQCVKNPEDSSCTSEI
UniProt P28799: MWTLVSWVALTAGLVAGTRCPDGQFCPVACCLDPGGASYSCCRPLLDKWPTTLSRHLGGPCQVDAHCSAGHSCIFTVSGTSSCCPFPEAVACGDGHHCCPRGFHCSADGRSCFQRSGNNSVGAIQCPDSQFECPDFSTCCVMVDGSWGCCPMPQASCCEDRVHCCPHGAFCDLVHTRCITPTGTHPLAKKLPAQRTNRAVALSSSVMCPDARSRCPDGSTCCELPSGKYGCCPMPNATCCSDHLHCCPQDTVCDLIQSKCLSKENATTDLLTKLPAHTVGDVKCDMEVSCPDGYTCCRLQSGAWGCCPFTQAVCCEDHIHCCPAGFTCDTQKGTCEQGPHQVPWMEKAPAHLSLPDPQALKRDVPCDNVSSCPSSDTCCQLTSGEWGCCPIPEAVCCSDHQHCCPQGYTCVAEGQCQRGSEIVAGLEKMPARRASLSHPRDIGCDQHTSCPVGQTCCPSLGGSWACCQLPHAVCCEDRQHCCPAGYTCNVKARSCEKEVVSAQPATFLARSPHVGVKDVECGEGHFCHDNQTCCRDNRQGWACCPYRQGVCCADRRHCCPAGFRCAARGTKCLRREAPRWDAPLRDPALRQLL
UniProt P30085: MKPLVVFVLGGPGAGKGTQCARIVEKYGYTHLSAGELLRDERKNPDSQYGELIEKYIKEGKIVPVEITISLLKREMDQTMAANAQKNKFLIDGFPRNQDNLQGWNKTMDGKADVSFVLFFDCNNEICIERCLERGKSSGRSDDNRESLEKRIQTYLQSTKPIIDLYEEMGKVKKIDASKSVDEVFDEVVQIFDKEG
UniProt P16591: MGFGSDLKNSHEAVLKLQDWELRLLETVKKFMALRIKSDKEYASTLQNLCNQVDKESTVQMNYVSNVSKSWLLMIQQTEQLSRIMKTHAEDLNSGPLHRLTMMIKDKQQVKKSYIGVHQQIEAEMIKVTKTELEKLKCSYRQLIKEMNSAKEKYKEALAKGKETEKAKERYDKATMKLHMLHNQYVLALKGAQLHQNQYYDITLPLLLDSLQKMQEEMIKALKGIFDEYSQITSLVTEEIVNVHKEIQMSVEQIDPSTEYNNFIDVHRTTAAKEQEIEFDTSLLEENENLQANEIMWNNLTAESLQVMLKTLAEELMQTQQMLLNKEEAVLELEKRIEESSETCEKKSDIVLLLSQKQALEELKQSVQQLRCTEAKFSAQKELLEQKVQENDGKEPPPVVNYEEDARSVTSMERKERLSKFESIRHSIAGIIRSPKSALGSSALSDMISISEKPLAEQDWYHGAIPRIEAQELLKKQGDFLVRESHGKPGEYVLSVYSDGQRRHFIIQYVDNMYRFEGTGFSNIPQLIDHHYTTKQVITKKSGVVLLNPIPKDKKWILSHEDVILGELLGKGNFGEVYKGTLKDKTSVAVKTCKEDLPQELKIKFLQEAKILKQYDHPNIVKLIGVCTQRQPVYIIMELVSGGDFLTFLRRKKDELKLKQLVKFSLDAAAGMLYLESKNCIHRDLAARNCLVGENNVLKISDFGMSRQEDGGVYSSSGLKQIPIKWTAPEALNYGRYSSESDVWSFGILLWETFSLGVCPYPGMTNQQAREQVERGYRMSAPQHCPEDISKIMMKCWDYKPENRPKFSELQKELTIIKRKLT
UniProt P23771: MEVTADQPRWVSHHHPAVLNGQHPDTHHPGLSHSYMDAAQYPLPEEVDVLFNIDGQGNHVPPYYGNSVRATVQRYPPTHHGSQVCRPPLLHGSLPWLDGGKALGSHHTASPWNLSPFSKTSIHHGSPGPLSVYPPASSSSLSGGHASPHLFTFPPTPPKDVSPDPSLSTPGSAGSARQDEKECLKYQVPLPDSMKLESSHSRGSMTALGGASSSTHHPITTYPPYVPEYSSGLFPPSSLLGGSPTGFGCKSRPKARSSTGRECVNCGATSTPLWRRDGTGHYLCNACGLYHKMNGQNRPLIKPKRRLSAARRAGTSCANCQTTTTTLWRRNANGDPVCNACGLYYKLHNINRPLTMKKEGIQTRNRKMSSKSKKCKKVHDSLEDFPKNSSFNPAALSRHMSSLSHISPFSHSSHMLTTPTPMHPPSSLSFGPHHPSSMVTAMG
UniProt P17028: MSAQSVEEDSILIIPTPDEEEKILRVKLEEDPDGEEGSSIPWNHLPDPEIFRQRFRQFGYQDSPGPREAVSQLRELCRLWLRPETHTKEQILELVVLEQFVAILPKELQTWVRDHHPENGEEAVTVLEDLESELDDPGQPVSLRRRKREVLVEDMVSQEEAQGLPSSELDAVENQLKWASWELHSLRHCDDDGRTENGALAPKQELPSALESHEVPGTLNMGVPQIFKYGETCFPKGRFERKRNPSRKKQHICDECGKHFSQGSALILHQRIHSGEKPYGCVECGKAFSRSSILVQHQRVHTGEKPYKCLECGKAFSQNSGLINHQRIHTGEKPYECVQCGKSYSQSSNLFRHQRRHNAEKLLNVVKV
UniProt P17029: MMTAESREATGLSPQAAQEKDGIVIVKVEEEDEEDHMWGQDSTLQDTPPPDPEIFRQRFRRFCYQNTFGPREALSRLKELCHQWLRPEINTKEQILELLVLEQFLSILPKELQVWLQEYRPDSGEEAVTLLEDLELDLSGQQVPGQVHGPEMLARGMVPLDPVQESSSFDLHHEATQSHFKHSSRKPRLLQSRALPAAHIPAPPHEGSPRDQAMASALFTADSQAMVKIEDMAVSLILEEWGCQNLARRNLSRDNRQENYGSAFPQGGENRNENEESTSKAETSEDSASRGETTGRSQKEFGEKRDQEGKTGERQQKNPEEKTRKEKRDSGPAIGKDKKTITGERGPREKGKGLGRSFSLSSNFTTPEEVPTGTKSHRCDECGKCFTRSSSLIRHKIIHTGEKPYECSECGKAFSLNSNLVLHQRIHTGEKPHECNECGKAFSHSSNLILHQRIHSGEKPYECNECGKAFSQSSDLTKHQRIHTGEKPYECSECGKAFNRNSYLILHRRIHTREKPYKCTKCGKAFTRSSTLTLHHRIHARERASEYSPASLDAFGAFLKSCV
UniProt P30825: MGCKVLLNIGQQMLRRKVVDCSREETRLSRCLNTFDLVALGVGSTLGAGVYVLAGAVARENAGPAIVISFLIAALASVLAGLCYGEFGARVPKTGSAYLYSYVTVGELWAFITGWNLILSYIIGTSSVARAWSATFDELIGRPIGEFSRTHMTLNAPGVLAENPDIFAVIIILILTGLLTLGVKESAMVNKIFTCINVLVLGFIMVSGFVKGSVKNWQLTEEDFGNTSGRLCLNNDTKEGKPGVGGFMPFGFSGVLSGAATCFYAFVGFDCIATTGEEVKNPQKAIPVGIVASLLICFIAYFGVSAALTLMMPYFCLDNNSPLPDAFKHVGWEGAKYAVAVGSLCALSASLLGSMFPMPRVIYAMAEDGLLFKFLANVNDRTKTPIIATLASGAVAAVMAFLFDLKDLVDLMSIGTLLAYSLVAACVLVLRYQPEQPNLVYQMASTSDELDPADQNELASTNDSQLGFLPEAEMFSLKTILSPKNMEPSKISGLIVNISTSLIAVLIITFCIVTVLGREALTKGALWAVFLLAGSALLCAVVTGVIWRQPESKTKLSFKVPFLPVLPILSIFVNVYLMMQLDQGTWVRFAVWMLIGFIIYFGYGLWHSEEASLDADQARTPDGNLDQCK
UniProt P20339: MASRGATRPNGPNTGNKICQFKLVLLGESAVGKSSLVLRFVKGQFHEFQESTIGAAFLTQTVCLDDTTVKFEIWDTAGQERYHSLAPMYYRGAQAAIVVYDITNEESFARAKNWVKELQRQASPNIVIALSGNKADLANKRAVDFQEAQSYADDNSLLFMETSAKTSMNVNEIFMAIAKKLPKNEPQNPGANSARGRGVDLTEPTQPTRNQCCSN
UniProt P32519: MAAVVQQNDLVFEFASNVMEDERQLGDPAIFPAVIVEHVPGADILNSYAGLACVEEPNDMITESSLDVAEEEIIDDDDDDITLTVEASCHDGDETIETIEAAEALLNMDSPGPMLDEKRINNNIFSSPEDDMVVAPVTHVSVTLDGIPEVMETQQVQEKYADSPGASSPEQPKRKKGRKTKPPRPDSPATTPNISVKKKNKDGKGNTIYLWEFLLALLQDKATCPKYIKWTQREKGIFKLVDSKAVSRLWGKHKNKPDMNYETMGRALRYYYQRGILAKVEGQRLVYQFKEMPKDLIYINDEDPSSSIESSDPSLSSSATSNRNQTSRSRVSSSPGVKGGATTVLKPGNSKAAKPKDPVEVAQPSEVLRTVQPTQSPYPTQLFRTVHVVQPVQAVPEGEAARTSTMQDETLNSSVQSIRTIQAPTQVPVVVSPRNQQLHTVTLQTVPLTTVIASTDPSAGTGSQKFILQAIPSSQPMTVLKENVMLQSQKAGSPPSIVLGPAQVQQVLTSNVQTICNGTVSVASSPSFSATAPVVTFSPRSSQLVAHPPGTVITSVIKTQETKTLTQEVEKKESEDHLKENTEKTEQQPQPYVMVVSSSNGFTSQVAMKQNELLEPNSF
UniProt P17542, whole entry: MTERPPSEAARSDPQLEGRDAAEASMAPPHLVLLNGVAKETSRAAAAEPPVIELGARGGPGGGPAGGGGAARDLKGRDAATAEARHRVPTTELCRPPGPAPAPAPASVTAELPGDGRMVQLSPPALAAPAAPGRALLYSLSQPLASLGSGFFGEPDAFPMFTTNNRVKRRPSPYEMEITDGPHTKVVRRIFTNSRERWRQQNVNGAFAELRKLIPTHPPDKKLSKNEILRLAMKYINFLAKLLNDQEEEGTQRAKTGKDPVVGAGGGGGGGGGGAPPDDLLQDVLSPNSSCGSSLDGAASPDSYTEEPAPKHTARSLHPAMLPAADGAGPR

Compound: Nc1ncnc2c1ncn2[C@@H]1O[C@H](COP(=O)(O)OP(=O)(O)OP(=O)(O)O)[C@@H](O)[C@H]1O [adenosine triphosphate]
Assay: NP40-soluble protein abundance relative to vehicle (solubility fold change) (ratio); higher = more soluble protein in presence of ATP
In short: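 Eight concentrations, 0.1 to 10 mM, were tested on Jurkat crude lysate for 10 min at room temperature and then 3 min at 37 °C, in three independent experiments. The lysate was solubilised with 0.8% NP40 and benzonase, ultracentrifuged, and the supernatant TMT-labelled for LC-MS/MS. Each value is the fold change against the detergent-processed vehicle in its own replicate, from vsn-normalised intensities.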

Target | NP40-soluble protein abundance (concentration: 1mM) | NP40-soluble protein abundance (concentration: 2mM) | NP40-soluble protein abundance (concentration: 4mM) | NP40-soluble protein abundance (concentration: 6mM) | NP40-soluble protein abundance (concentration: 8mM) | NP40-soluble protein abundance (concentration: 10mM)
CA8 (UniProt P35219) | 1.05 ± 0.11 | 1.06 ± 0.14 | 1.06 ± 0.091 | 1.03 ± 0.14 | 1.07 ± 0.09 | 1.01 ± 0.1
UniProt P17096 and related entries | 0.91 ± 0.21 | 1.05 ± 0.2 | 1.03 ± 0.18 | 1.19 ± 0.45 | 1.16 ± 0.14 | 1.43 ± 0.7
SLC9A1 (UniProt P19634) | 0.912 ± 0.067 | 0.893 ± 0.031 | 0.897 ± 0.036 | 0.942 ± 0.092 | 0.883 ± 0.061 | 0.855 ± 0.078
UniProt P28907 | 0.966 ± 0.087 | 0.955 ± 0.054 | 0.943 ± 0.07 | 0.966 ± 0.067 | 0.919 ± 0.028 | 0.864 ± 0.11
UniProt P28799 and related entries | 1 ± 0.087 | 1.01 ± 0.08 | 1.07 ± 0.038 | 1.12 ± 0.072 | 1.07 ± 0.022 | 1.03 ± 0.091
CMPK1 (UniProt P30085) | 0.972 ± 0.049 | 0.978 ± 0.033 | 0.924 ± 0.032 | 1.01 ± 0.031 | 0.94 ± 0.034 | 0.921 ± 0.037
UniProt P16591 and related entries | 1.05 ± 0.047 | 1.03 ± 0.049 | 0.986 ± 0.033 | 0.994 ± 0.041 | 1 ± 0.028 | 1.01 ± 0.05
UniProt P23771 and related entries | 0.853 ± 0.026 | 0.857 ± 0.043 | 0.838 ± 0.05 | 0.806 ± 0.047 | 0.796 ± 0.0091 | 0.785 ± 0.03
ZNF24 (UniProt P17028) | 1.04 ± 0.027 | 1.02 ± 0.043 | 1.04 ± 0.03 | 1.05 ± 0.02 | 1.02 ± 0.022 | 1.03 ± 0.037
ZKSCAN1 (UniProt P17029) | 0.877 ± 0.056 | 0.873 ± 0.095 | 0.879 ± 0.14 | 0.883 ± 0.16 | 0.914 ± 0.14 | 0.952 ± 0.13
SLC7A1 (UniProt P30825) | 0.941 ± 0.063 | 0.95 ± 0.071 | 0.947 ± 0.049 | 0.893 ± 0.036 | 0.924 ± 0.063 | 0.884 ± 0.047
UniProt P20339 and related entries | 0.916 ± 0.079 | 0.977 ± 0.041 | 0.956 ± 0.037 | 0.899 ± 0.11 | 0.949 ± 0.1 | 0.988 ± 0.033
UniProt P32519 and related entries | 0.948 ± 0.063 | 0.942 ± 0.031 | 0.915 ± 0.016 | 0.974 ± 0.048 | 0.917 ± 0.05 | 0.925 ± 0.028
ATP6V1C1 (UniProt P21283) | 0.986 ± 0.035 | 0.986 ± 0.043 | 0.966 ± 0.03 | 0.979 ± 0.052 | 0.98 ± 0.032 | 0.96 ± 0.029
TAL1 (UniProt P17542) | 0.975 ± 0.17 | 0.892 ± 0.083 | 0.901 ± 0.075 | 0.885 ± 0.12 | 0.801 ± 0.05 | 0.799 ± 0.1

2 entries from above, with tabs.
Target	NP40-soluble protein abundance (concentration: 1mM)	NP40-soluble protein abundance (concentration: 2mM)	NP40-soluble protein abundance (concentration: 4mM)	NP40-soluble protein abundance (concentration: 6mM)	NP40-soluble protein abundance (concentration: 8mM)	NP40-soluble protein abundance (concentration: 10mM)
CMPK1 (UniProt P30085)	0.972 ± 0.049	0.978 ± 0.033	0.924 ± 0.032	1.01 ± 0.031	0.94 ± 0.034	0.921 ± 0.037
UniProt P16591 and related entries	1.05 ± 0.047	1.03 ± 0.049	0.986 ± 0.033	0.994 ± 0.041	1 ± 0.028	1.01 ± 0.05
